# Reference: article doi:10.1101/2022.06.15.496229
# Sequences of proteins named here, by UniProt entry; tags and fusion partners are left off.
# UniProt P60953: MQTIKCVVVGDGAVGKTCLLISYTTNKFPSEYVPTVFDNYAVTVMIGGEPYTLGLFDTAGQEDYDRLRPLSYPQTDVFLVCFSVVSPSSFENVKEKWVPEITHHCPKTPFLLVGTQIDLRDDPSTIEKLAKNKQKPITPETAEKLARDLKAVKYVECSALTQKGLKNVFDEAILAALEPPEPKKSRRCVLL
# These are yes or no findings as the source states them, for the method shown. Some binding calls cover weakened binding; strength is not graded here.
# Molecular target: T1, DHR2 domain of human DOCK11 (DOCK11^DHR2, residues 1609-2073) (human) (UniProt Q5JSL3)
# T1 sequence: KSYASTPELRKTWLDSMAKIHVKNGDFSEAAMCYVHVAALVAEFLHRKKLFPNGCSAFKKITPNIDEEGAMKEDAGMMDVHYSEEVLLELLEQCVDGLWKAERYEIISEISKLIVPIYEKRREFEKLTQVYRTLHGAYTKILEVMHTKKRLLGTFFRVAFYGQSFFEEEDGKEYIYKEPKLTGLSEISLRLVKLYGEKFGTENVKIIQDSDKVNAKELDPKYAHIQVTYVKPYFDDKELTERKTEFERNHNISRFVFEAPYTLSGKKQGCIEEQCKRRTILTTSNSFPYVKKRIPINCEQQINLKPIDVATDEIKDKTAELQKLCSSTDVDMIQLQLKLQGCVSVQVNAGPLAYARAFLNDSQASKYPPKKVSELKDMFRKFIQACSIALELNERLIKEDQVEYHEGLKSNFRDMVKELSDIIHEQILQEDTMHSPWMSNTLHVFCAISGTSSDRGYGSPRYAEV
# Assay: pull-down
substance,measurement,value
CDC42 (residues 1-191) (from UniProt P60953 1-191),binding,binds
